# Data published in ChEMBL document CHEMBL4303122, “Identification of potential treatments for COVID-19 through artificial intelligence-enabled phenomic analysis of human cells infected with SARS-CoV-2” (2020).
# Over roughly 1,600 compounds, “Hit score” has its median near 0.13; the highest 2% begin near 0.46. The list shows a part of the results. *1 amine or outer side, *2 acyl side, *3 side chain or, on linkers, in order; H or OH if unused. Where a SMILES comes first, the peptide text is derived from it. Bridges are numbered along the chain shown (N, C = ends). [ ]: non-standard residue; d: D form. The star is where a group is joined. pTerphenylCO(4''-OnC5H11) = CCCCCOc1ccc(-c2ccc(-c3ccc(C(=O)*)cc3)cc2)cc1; Orn(4R-OH,5R-OH) = O=C([C@H](C[C@@H](O)[C@@H](O)N[*:3])N[*:1])[*:2]; hTyr(3S-OH,4S-OH) = N[C@H](C(=O)O)[C@H](O)[C@@H](O)c1ccc(O)cc1; Pro(3S-OH,4S-Me) = C[C@H]1CN[C@H](C(=O)O)[C@H]1O; Hyp = O=C(O)[C@@H]1C[C@@H](O)CN1
# Tested on: SARS-CoV-2
# Experiment: Antiviral activity against SARS-CoV-2 (USA-WA1/2020 strain) measured by imaging in HRCE cells at MOI 0.4 after 96 hrs (reported as hit score from 0-1 for on-disease vs off-disease activity: scores >0.6 considered hits)
# Format: functional, Homo sapiens
row,Compound,Hit score
1,NNc1nncc2ccccc12 [HYDRALAZINE],0.1818
2,CC(=O)OCC(CCn1cnc2cnc(N)nc21)COC(C)=O [FAMCICLOVIR],0.02613
3,CN1CCN(c2c(F)cc3c(=O)c(C(=O)O)cn(CCF)c3c2F)CC1 [FLEROXACIN],0.1213
4,COc1ccc(CCN(C)CCCC(C#N)(c2cc(OC)c(OC)c(OC)c2)C(C)C)cc1OC (centres undefined) [GALLOPAMIL],0.1501
5,C1CNCCN1 [PIPERAZINE],0.1799
6,CC(/C=C1\SC(=S)N(CC(=O)O)C1=O)=C\c1ccccc1,0.05307
7,Cc1nc(=O)c2cc(CN(C)c3ccc(C(=O)N[C@@H](CCC(=O)O)C(=O)O)s3)ccc2[nH]1 [RALTITREXED],0.07535
8,CN1CCN(CCCN2c3ccccc3Sc3ccc(Cl)cc32)CC1 [PROCHLORPERAZINE],0.01288
9,CNCC(O)c1ccc(OC(=O)C(C)(C)C)c(OC(=O)C(C)(C)C)c1 (centres undefined) [DIPIVEFRIN],-0.2176
10,CN(C)c1cc(CNCC(C)(C)C)c(O)c2c1C[C@H]1C[C@H]3[C@H](N(C)C)C(O)=C(C(N)=O)C(=O)[C@@]3(O)C(O)=C1C2=O [OMADACYCLINE],0.1584
11,CC(C)NC[C@@H](O)COc1cccc2ccccc12 [DEXPROPRANOLOL],0.4686
12,CCc1cn([C@H]2C[C@H](O)[C@@H](CO)O2)c(=O)[nH]c1=O [EDOXUDINE],0.06754
13,O=c1[nH]c(=O)n(C2CCCO2)cc1F (centres undefined) [TEGAFUR],0.09063
14,O=C(CNc1cccc(Cl)c1)NC1CCCN(c2ncnc3[nH]ccc23)C1 (centres undefined),0.1071
15,Cc1c(N(C)CS(=O)(=O)O)c(=O)n(-c2ccccc2)n1C [METAMIZOLE],0.2295
16,CCO.C[C@H]1c2cccc(O)c2C(=O)C2=C(O)[C@]3(O)C(=O)C(C(N)=O)=C(O)[C@@H](N(C)C)[C@@H]3[C@@H](O)[C@@H]21.C[C@H]1c2cccc(O)c2C(=O)C2=C(O)[C@]3(O)C(=O)C(C(N)=O)=C(O)[C@@H](N(C)C)[C@@H]3[C@@H](O)[C@@H]21.Cl.Cl.O [DOXYCYCLINE HYCLATE],0.07535
17,C[C@H]1CNCCCN1S(=O)(=O)c1cccc2cncc(F)c12,0.01241
18,O=C(O)c1cc(-c2ccccc2)nc2ccccc12 [CINCHOPHEN],0.02527
19,[H]/C=C/[C@@]1(C)CC(=O)[C@]2(O)[C@@]3(C)[C@@H](O)CCC(C)(C)[C@@H]3[C@H](OC(=O)CCN(C)C)[C@H](OC(C)=O)[C@@]2(C)O1,-0.001781
20,CN(C)c1nc(N(C)C)nc(N(C)C)n1 [ALTRETAMINE],0.1959

# Reprinted at random: 4 records from the list, in no set order.
row,Compound,Hit score
2,CC(=O)OCC(CCn1cnc2cnc(N)nc21)COC(C)=O [FAMCICLOVIR],0.02613
20,CN(C)c1nc(N(C)C)nc(N(C)C)n1 [ALTRETAMINE],0.1959
3,CN1CCN(c2c(F)cc3c(=O)c(C(=O)O)cn(CCF)c3c2F)CC1 [FLEROXACIN],0.1213
15,Cc1c(N(C)CS(=O)(=O)O)c(=O)n(-c2ccccc2)n1C [METAMIZOLE],0.2295

# Next structures:

row,Compound,Hit score
1,N[C@H](C(=O)O)[C@H](O)c1ccc(O)c(O)c1 [DROXIDOPA],0.07126
2,Cc1oc(=O)oc1COC(=O)C1=C([C@H]2CCCO2)S[C@@H]2[C@@H]([C@@H](C)O)C(=O)N12 [FAROPENEM MEDOXOMIL],0.000691
3,C=CC1=C(C(=O)O)N2C(=O)[C@@H](NC(=O)/C(=N\O)c3csc(N)n3)[C@H]2SC1,0.1164
4,COc1ccccc1OCC(O)CN1CCN(CC(=O)Nc2c(C)cccc2C)CC1 (centres undefined) [RANOLAZINE],0.1142
5,NC(=O)C(c1ccccc1)(c1ccccc1)[C@@H]1CCN(CCc2ccc3c(c2)CCO3)C1 [DARIFENACIN],0.15
6,CCCNCC(O)COc1ccccc1C(=O)CCc1ccccc1 (centres undefined) [PROPAFENONE],0.2048
7,CCCCCCOC(=O)CCC(=O)CN [HEXAMINOLEVULINATE],0.1128
8,CO/N=C(\C(=O)N[C@@H]1C(=O)N2C(C(=O)OCOC(=O)C(C)(C)C)=C(C)CS[C@H]12)c1csc(N)n1,0.2495
9,CC(=O)[C@H]1CC[C@H]2[C@@H]3CC[C@@H]4C[C@H](O)CC[C@]4(C)[C@H]3CC[C@]12C [ELTANOLONE],0.1546
10,CCc1c(Cl)c(O)c(Cl)c(O)c1C(=O)O[C@H]1[C@H](O)[C@H](OC)[C@H](OC/C2=C\C=C\C[C@H](O)/C(C)=C/[C@H](CC)[C@@H](O[C@@H]3OC(C)(C)[C@@H](OC(=O)C(C)C)[C@H](O)[C@@H]3O)/C(C)=C/C(C)=C/C[C@@H]([C@@H](C)O)OC2=O)O[C@@H]1C [FIDAXOMICIN],0.1058
11,OC[C@H]1O[C@@H](Oc2cc(O)cc(/C=C/c3ccc(O)cc3)c2)[C@H](O)[C@@H](O)[C@@H]1O [PICEID],0.1094
12,CC(SC(=O)c1cccs1)C(=O)NCC(=O)O (centres undefined) [STEPRONIN],0.2404
13,CCOC(=O)[C@H](CCc1ccccc1)N[C@H]1CS[C@H](c2cccs2)CN(CC(=O)O)C1=O [TEMOCAPRIL],0.08409
14,C#C[C@]1(OC(C)=O)CC[C@H]2[C@@H]3CCC4=CC(=O)CC[C@@H]4[C@H]3CC[C@@]21C [NORETHINDRONE ACETATE],0.06494
15,O=C1OCCN1/N=C/c1ccc([N+](=O)[O-])o1 [FURAZOLIDONE],0.1034
16,NC(=O)c1ccc([N+](=O)[O-])cc1Cl [AKLOMIDE],0.1103
17,C[n+]1ccc(C(=O)NCc2ccccc2)cc1.[I-] [ENISAMIUM IODIDE],-0.002396
18,c1ccc([C@H]2CN3CCSC3=N2)cc1 [LEVAMISOLE],0.1084
19,C[C@@H]1C[C@H]2[C@@H]3C[C@H](F)C4=CC(=O)C=C[C@]4(C)[C@@]3(Cl)[C@@H](O)C[C@]2(C)[C@H]1C(=O)COC(=O)C(C)(C)C [CLOCORTOLONE PIVALATE],0.2781
20,CN1C[C@@H]2C[C@H]1CN2c1cc2c(cc1F)c(=O)c(C(=O)O)cn2C1CC1.CS(=O)(=O)O [DANOFLOXACIN MESYLATE],0.01486

row,Compound,Hit score
1,Cc1c(O)c(=O)ccn1C [DEFERIPRONE],0.04593
2,O=[N+]([O-])c1cc([As](=O)(O)O)ccc1O [ROXARSONE],0.1196
3,N#Cc1ccnc(N2C(=O)CC[C@H]2C(=O)N(c2cncc(F)c2)[C@H](C(=O)NC2CC(F)(F)C2)c2ccccc2Cl)c1 [IVOSIDENIB],0.2722
4,CNC(=O)c1cnn(-c2nc(N)c3ncn([C@@H]4O[C@H](CO)[C@@H](O)[C@H]4O)c3n2)c1 [REGADENOSON ANHYDROUS],0.115
5,Nc1ccc(S(=O)(=O)Nc2ccnn2-c2ccccc2)cc1 [SULFAPHENAZOLE],0.09169
6,CCN(C)C(=O)Oc1cccc([C@H](C)N(C)C)c1 [RIVASTIGMINE],0.08962
7,O=C(NCC(O)CO)c1c(I)c(C(=O)NCC(O)CO)c(I)c(N(CCO)C(=O)CO)c1I (centres undefined) [IOVERSOL],0.06195
8,CCCCCC(=O)O[C@]1(C(C)=O)CC[C@H]2[C@@H]3CCC4=CC(=O)CC[C@]4(C)[C@H]3CC[C@@]21C [HYDROXYPROGESTERONE CAPROATE],0.1371
9,COc1cc(C)c2c(Oc3cccc(C(F)(F)F)c3)c(OC)cc(NC(C)CCCN)c2n1.O=C(O)CCC(=O)O (centres undefined) [TAFENOQUINE SUCCINATE],0.101
10,O=C1CC2(CCCC2)CC(=O)N1CCCCN1CCN(c2ncccn2)CC1 [BUSPIRONE],0.1391
11,c1ccc(OCc2ccc(CCCN3CCOCC3)cc2)cc1 [FOMOCAINE],0.05308
12,C[C@H](C(=O)O)c1ccc(-c2ccccc2)c(F)c1 [ESFLURBIPROFEN],0.1907
13,N#Cc1cc(-c2n[nH]c(-c3ccncc3)n2)ccn1 [TOPIROXOSTAT],-0.01483
14,"CCCCCOc1ccc(-c2ccc(-c3ccc(C(=O)N[C@H]4C[C@@H](O)[C@@H](O)NC(=O)[C@@H]5[C@@H](O)[C@@H](C)CN5C(=O)[C@H]([C@@H](C)O)NC(=O)[C@H]([C@H](O)[C@@H](O)c5ccc(O)cc5)NC(=O)[C@@H]5C[C@@H](O)CN5C(=O)[C@H]([C@@H](C)O)NC4=O)cc3)cc2)cc1 [ANIDULAFUNGIN] ({pTerphenylCO(4''-OnC5H11)}-[Orn(4R-OH,5R-OH)]T[Hyp][hTyr(3S-OH,4S-OH)]T[Pro(3S-OH,4S-Me)]; lactam 1-C)",0.1907
15,COC(=O)N(C)c1c(N)nc(-c2nn(Cc3ccccc3F)c3ncccc23)nc1N [RIOCIGUAT],0.2213
16,C[C@H](CSC(=O)c1ccccc1)C(=O)N1C[C@@H](Sc2ccccc2)C[C@H]1C(=O)[O-].C[C@H](CSC(=O)c1ccccc1)C(=O)N1C[C@@H](Sc2ccccc2)C[C@H]1C(=O)[O-].[Ca+2] [ZOFENOPRIL CALCIUM],0.2305
17,C/C=C/C[C@@H](C)[C@@H](O)[C@H]1C(=O)N[C@@H](CC)C(=O)N(C)CC(=O)N(C)[C@@H](CC(C)C)C(=O)N[C@@H](C(C)C)C(=O)N(C)[C@@H](CC(C)C)C(=O)N[C@@H](C)C(=O)N[C@H](C)C(=O)N(C)[C@@H](CC(C)C)C(=O)N(C)[C@@H](CC(C)C)C(=O)N(C)[C@@H](C(C)C)C(=O)N1C [CYCLOSPORINE],0.07198
18,C[C@H](O)C(=O)Nc1c(I)c(C(=O)NC(CO)CO)c(I)c(C(=O)NC(CO)CO)c1I [IOPAMIDOL],0.1622
19,CN(C)C(=O)Oc1cc(OC(=O)N(C)C)cc(C(O)CNC(C)(C)C)c1 (centres undefined) [BAMBUTEROL],0.1323
